The results in this text go back to PMC7215387, “Comparison of Target Recognition by TRAF1 and TRAF2” (International Journal of Molecular Sciences, 2020).

No constants are given. Whether binding was seen depends on the method and setting. Some binding calls cover weakened binding; strength is not graded here.

The test addresses T1, TRAF1 TRAF domain (amino acid residues 220-416) (UniProt Q13077).
T1 sequence: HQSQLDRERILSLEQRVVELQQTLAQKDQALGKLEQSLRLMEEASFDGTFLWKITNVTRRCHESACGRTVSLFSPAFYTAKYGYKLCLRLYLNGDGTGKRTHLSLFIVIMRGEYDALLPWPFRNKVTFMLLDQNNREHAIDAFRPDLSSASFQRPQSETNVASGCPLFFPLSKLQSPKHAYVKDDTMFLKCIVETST
In words: SEC; Superdex 200 10/30; proteins mixed, 1 h at 4 °C, concentrated to 4-5 mg/mL; 20 mM Tris pH 8.0, 150 mM NaCl; fractions on SDS-PAGE; both purified.

B1: N-terminal domain of TRADD (TRADD-N, amino acid residues 1-163) (domain or fragment, UniProt Q15628 1-163, looked up)
chain: MAAGQNGHEEWVGSAYLFVESSLDKVVLSDAYAHPQQKVAVYRALQAALAESGGSPDVLQMLKIHRSDPQLIVQLRFCGRQPCGRFLRAYREGALRAALQRSLAAALAQHSVPLQLELRAGAERLDALLADEERCLSCILAQQPDRLRDEELAELEDALRNLK
notes: TRADD (tumor necrosis factor receptor type 1-associated death domain protein), N-terminal domain, residues 1-163; Cloned into pET24a by NdeI and XhoI; source: E. coli, purified (almost identical to the method for TRAF1 and TRAF2; SEC in 20 mM Tris-HCl pH 8.0, 150 mM NaCl)
Regarding B1, the binding result was “binds weakly”.
